Measured values taken from article PMC4534774.
Results are given in words; binding and its absence hold for the method and conditions named. In cells and extracts the contact can be indirect. Some binding calls cover weakened binding; strength is not graded here. Each block holds one binder with its values, some of them ahead of it.

Key:
FLAG-tagged FBW7, Q969H0 = experiment: co-IP; anti-Flag (DYDDDK Tag Rabbit) pre-bound to protein A agarose, overnight immunoprecipitation from extracts of HT29 cells transfected with Flag-FBW7, with or without 1,25D; washes with 200 mM NaCl, 1% NP-40; Western blot for NF-κB1 and RELA; controls: control IgG and untransfected cells; conditions: remark: other sources report otherwise
[1] = target: T1, vitamin D receptor (human (endogenous in HT29)) (UniProt P11473); experiment: co-IP; anti-VDR (D-6) pre-bound to protein A agarose, overnight immunoprecipitation from extracts of HT29 cells treated with vehicle or 1,25D (100 nM) for 24 h; lysis in 20 mM Tris pH 7.5, 100 mM NaCl, 0.5% NP-40; washes with 200 mM NaCl, 1% NP-40; Western blot for NF-κB subunits
T1 sequence: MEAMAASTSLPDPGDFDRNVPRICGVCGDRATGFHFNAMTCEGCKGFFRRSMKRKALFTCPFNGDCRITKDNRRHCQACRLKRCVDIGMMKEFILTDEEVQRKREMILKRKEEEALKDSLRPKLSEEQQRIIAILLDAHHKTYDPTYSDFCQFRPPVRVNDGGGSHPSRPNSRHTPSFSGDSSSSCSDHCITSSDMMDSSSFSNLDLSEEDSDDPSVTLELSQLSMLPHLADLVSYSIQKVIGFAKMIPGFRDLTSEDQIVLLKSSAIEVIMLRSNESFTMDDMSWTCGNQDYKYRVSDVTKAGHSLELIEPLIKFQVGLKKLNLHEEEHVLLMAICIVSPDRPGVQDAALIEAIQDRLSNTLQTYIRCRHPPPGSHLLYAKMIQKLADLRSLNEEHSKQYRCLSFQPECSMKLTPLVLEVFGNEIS

binding (FLAG-tagged FBW7, Q969H0): binds
B1: NF-κB1 p105, P19838 1-968 (protein)
chain: MAEDDPYLGRPEQMFHLDPSLTHTIFNPEVFQPQMALPTDGPYLQILEQPKQRGFRFRYVCEGPSHGGLPGASSEKNKKSYPQVKICNYVGPAKVIVQLVTNGKNIHLHAHSLVGKHCEDGICTVTAGPKDMVVGFANLGILHVTKKKVFETLEARMTEACIRGYNPGLLVHPDLAYLQAEGGGDRQLGDREKELIRQAALQQTKEMDLSVVRLMFTAFLPDSTGSFTRRLEPVVSDAIYDSKAPNASNLKIVRMDRTAGCVTGGEEIYLLCDKVQKDDIQIRFYEEEENGGVWEGFGDFSPTDVHRQFAIVFKTPKYKDINITKPASVFVQLRRKSDLETSEPKPFLYYPEIKDKEEVQRKRQKLMPNFSDSFGGGSGAGAGGGGMFGSGGGGGGTGSTGPGYSFPHYGFPTYGGITFHPGTTKSNAGMKHGTMDTESKKDPEGCDKSDDKNTVNLFGKVIETTEQDQEPSEATVGNGEVTLTYATGTKEESAGVQDNLFLEKAMQLAKRHANALFDYAVTGDVKMLLAVQRHLTAVQDENGDSVLHLAIIHLHSQLVRDLLEVTSGLISDDIINMRNDLYQTPLHLAVITKQEDVVEDLLRAGADLSLLDRLGNSVLHLAAKEGHDKVLSILLKHKKAALLLDHPNGDGLNAIHLAMMSNSLPCLLLLVAAGADVNAQEQKSGRTALHLAVEHDNISLAGCLLLEGDAHVDSTTYDGTTPLHIAAGRGSTRLAALLKAAGADPLVENFEPLYDLDDSWENAGEDEGVVPGTTPLDMATSWQVFDILNGKPYEPEFTSDDLLAQGDMKQLAEDVKLQLYKLLEIPDPDKNWATLAQKLGLGILNNAFRLSPAPSKTLMDNYEVSGGTVRELVEALRQMGYTEAIEVIQAASSPVKTTSQAHSLPLSPASTRQQIDELRDSDSVCDSGVETSFRKLSFTESLTSGASLLTLNKMPHDYGQEGPLEGKI

binding [1]: binds
B2: NF-κB2 p100 (protein, UniProt Q00653-1 1-900)
chain: MESCYNPGLDGIIEYDDFKLNSSIVEPKEPAPETADGPYLVIVEQPKQRGFRFRYGCEGPSHGGLPGASSEKGRKTYPTVKICNYEGPAKIEVDLVTHSDPPRAHAHSLVGKQCSELGICAVSVGPKDMTAQFNNLGVLHVTKKNMMGTMIQKLQRQRLRSRPQGLTEAEQRELEQEAKELKKVMDLSIVRLRFSAFLRASDGSFSLPLKPVISQPIHDSKSPGASNLKISRMDKTAGSVRGGDEVYLLCDKVQKDDIEVRFYEDDENGWQAFGDFSPTDVHKQYAIVFRTPPYHKMKIERPVTVFLQLKRKRGGDVSDSKQFTYYPLVEDKEEVQRKRRKALPTFSQPFGGGSHMGGGSGGAAGGYGGAGGGGSLGFFPSSLAYSPYQSGAGPMGCYPGGGGGAQMAATVPSRDSGEEAAEPSAPSRTPQCEPQAPEMLQRAREYNARLFGLAQRSARALLDYGVTADARALLAGQRHLLTAQDENGDTPLHLAIIHGQTSVIEQIVYVIHHAQDLGVVNLTNHLHQTPLHLAVITGQTSVVSFLLRVGADPALLDRHGDSAMHLALRAGAGAPELLRALLQSGAPAVPQLLHMPDFEGLYPVHLAVRARSPECLDLLVDSGAEVEATERQGGRTALHLATEMEELGLVTHLVTKLRANVNARTFAGNTPLHLAAGLGYPTLTRLLLKAGADIHAENEEPLCPLPSPPTSDSDSDSEGPEKDTRSSFRGHTPLDLTCSTKVKTLLLNAAQNTMEPPLTPPSPAGPGLSLGDTALQNLEQLLDGPEAQGSWAELAERLGLRSLVDTYRQTTSPSGSLLRSYELAGGDLAGLLEALSDMGLEEGVRLLRGPETRDKLPSTAEVKEDSAYGSQSVEQEAEKLGPPPEPPGGLCHGHPQPQVH
